According to patent US5851808, “Rapid subcloning using site-specific recombination” (Baylor College of Medicine):

Biological target: T1, Cre recombinase (UniProt P06956)
T1 sequence (looked up, limits assumed): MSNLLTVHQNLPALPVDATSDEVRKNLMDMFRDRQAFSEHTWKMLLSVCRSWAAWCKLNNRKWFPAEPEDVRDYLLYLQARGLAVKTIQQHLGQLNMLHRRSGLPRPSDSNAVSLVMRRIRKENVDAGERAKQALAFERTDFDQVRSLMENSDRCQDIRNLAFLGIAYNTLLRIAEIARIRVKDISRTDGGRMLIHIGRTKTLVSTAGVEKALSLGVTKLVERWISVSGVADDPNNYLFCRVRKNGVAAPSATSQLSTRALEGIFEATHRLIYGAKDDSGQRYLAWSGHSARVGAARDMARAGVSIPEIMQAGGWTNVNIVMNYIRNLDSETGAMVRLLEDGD
Experiment: activity in cells
Details: in vivo fusion of pUNI and pHOST in QLB4 cells; multimeric fusion products; protein in cells; protein details: untagged, lac-cre in E. coli QLB4; only the site is given

ATAACTTCGTATAGCATACATTATACGAAGTTAT (double strand) [loxP wild-type]
activity on this sequence: active

Protein sequences can lack the tags named with them.
